Counter-ions that a name gives are not always drawn. Some of the results follow. Hit calls seldom repeat between salt and free forms of one compound.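 Kinases, fused to nanoluciferase, were expressed in K562 cells; luminescence was measured every 4 h from 2 to 18 h as percent of control (DMSO = 100%, positive control = 0%). A time point is decreased if signal falls significantly (2 sigma). Hits were called by the authors by a rule that is not shown; the count of time points alone does not decide it.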
What was measured:
Test in all cases: kinase-Nluc reporter destabilization hit call (1 = scored as downregulated) (binary); higher = compound decreases kinase abundance
Conditions in all cases: K562; 2-18 h
MAPK1 = MAPK1 (UniProt P28482)
MAPK4 = MAPK4 (UniProt P31152)
MAPKAPK2 = MAPKAPK2 (UniProt P49137)
MKNK1 = MKNK1 (UniProt Q9BUB5)
NTRK2 = NTRK2 (UniProt Q16620)
NTRK3 = NTRK3 (UniProt Q16288)
PAK4 = PAK4 (UniProt O96013)
PBK = PBK (UniProt Q96KB5)
PDGFRB = PDGFRB (UniProt P09619)
PDK1 = PDK1 (UniProt Q15118)

Protein sequences, listed by entry. Tags and fused reporters are not part of them. Lines headed by an entry give the natural chain unless they say otherwise; changes in a name come on top.
UniProt P28482, whole entry: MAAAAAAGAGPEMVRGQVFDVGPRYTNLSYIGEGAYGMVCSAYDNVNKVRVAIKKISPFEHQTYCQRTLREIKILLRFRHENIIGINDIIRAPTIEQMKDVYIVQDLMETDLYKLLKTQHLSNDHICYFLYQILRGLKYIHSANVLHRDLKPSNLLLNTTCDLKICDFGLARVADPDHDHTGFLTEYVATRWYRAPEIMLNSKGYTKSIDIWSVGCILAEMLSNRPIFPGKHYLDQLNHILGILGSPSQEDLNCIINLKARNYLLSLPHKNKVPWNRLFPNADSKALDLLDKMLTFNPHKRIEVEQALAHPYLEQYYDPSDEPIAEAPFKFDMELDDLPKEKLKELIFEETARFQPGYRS
UniProt P31152, whole entry: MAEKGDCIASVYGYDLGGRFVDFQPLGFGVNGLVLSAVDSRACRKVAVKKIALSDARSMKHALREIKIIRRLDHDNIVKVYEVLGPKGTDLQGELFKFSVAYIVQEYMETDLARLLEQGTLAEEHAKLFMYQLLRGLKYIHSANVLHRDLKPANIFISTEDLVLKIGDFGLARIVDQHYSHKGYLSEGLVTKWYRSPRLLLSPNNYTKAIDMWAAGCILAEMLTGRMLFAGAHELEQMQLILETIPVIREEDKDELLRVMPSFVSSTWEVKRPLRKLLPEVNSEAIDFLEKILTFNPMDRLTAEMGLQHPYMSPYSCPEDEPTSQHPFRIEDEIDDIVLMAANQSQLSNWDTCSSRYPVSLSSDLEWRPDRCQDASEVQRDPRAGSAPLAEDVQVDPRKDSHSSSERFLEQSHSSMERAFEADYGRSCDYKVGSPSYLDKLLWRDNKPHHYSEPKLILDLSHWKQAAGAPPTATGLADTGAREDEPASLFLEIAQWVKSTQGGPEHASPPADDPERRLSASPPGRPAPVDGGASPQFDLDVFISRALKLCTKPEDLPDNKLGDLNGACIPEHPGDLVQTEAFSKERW
UniProt P49137, whole entry, looked up: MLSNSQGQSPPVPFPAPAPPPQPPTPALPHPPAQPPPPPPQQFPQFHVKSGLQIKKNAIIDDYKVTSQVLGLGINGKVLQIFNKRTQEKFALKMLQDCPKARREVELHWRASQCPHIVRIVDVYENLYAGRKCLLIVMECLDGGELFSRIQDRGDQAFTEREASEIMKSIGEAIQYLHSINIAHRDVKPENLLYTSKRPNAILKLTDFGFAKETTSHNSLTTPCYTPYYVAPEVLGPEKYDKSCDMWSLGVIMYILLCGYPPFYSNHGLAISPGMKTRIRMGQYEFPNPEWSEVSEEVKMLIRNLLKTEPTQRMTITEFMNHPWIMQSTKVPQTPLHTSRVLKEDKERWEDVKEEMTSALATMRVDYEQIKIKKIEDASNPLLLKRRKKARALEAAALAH
UniProt Q9BUB5: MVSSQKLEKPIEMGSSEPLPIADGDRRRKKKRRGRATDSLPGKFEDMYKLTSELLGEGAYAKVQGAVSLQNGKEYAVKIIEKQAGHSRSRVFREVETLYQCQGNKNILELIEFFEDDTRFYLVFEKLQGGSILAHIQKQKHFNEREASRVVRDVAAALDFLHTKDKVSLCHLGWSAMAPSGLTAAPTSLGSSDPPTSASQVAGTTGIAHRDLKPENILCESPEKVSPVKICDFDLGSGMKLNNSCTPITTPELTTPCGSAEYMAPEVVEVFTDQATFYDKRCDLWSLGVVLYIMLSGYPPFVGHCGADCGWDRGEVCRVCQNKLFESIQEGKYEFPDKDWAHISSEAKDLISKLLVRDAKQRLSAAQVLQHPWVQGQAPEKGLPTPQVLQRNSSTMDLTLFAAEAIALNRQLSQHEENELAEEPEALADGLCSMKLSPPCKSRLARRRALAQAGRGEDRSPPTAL
UniProt Q16620, whole entry, looked up: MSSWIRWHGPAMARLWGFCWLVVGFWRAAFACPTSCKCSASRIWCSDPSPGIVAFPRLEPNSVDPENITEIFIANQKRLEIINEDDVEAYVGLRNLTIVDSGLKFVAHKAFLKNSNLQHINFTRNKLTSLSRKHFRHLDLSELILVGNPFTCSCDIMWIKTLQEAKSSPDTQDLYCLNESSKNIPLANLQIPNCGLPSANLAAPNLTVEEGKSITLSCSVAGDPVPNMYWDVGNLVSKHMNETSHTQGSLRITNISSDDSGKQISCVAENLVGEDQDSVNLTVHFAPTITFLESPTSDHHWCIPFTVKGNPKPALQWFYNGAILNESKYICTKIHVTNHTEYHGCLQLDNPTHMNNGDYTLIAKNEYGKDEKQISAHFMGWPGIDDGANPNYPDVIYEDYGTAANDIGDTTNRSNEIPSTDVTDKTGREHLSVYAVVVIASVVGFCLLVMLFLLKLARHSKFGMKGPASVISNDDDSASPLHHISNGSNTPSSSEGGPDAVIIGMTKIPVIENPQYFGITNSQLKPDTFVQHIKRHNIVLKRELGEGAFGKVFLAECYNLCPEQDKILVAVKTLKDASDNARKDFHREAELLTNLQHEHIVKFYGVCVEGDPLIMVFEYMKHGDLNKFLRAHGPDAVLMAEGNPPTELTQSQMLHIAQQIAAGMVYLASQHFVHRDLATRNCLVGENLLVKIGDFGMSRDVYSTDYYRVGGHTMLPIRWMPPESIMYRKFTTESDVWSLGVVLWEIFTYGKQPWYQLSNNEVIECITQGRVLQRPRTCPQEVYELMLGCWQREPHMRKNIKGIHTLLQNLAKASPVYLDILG
UniProt Q16288, whole entry, looked up: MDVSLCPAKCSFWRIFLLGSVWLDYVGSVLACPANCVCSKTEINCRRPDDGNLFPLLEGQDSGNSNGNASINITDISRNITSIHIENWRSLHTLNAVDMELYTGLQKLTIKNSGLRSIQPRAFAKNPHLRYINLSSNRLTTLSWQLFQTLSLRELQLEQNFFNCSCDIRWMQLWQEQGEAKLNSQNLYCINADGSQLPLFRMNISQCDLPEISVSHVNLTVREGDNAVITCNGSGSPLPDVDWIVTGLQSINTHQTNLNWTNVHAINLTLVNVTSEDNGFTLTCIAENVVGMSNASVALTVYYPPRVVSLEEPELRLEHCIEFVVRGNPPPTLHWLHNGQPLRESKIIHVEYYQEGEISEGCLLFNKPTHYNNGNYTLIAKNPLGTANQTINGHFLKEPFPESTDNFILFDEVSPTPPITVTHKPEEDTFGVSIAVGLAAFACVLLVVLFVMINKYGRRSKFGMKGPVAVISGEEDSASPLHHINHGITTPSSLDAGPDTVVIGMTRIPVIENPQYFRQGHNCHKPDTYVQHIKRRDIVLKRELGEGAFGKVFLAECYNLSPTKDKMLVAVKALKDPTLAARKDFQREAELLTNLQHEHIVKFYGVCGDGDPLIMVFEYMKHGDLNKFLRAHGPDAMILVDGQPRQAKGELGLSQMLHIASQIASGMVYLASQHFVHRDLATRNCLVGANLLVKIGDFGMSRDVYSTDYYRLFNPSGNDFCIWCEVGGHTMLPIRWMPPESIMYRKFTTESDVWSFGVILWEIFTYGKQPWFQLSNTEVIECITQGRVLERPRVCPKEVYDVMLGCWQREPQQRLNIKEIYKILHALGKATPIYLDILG
UniProt O96013: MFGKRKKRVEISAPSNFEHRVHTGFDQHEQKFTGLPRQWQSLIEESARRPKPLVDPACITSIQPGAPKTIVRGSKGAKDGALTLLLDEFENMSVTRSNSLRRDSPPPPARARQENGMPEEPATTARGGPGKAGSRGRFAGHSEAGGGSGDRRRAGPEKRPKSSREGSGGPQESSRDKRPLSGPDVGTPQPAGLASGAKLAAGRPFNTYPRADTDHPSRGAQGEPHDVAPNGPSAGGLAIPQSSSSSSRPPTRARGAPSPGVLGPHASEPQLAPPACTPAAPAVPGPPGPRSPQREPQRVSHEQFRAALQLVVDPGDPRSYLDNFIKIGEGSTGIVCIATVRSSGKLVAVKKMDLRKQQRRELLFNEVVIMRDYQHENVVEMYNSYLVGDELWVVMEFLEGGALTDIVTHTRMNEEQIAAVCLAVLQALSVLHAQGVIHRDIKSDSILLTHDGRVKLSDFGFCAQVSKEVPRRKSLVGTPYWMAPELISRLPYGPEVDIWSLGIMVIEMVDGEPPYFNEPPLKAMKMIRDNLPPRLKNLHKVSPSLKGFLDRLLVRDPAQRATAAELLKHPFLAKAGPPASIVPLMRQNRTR
UniProt Q96KB5: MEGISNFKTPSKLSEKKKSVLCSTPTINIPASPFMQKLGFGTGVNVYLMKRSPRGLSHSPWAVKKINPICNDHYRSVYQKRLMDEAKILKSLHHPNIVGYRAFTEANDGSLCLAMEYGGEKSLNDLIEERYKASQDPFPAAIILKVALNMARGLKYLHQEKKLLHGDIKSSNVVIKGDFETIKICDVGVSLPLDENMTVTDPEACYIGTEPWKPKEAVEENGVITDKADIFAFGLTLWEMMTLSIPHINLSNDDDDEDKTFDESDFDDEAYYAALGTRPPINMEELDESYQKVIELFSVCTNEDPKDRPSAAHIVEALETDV
UniProt P09619, whole entry: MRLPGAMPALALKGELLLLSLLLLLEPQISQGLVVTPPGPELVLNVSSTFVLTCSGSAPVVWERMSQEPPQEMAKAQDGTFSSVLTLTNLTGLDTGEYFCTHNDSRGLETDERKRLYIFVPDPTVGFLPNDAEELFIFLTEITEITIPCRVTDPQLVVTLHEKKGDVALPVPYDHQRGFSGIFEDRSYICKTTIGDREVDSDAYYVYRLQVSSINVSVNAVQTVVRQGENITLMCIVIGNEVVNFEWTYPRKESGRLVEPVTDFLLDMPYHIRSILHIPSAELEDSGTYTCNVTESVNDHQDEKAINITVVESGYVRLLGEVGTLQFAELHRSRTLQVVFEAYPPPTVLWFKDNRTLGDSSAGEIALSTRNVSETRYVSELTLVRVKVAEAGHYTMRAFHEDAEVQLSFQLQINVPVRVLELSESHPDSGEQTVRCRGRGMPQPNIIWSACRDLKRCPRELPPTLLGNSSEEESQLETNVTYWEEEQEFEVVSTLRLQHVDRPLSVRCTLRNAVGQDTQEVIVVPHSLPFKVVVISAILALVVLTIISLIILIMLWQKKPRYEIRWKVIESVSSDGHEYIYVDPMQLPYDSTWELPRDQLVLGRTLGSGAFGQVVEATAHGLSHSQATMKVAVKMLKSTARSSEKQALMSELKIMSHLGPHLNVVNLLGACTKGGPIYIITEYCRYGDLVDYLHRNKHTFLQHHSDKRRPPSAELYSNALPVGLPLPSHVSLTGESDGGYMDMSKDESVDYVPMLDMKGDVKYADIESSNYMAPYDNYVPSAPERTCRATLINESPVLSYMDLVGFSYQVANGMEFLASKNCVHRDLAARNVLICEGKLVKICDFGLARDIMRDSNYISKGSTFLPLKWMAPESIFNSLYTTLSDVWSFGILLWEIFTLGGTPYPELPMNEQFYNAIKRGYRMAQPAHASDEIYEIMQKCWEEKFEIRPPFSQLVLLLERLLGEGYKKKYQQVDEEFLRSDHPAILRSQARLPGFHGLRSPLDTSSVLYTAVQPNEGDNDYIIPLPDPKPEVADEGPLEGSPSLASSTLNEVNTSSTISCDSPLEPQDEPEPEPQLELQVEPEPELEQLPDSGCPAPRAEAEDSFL
UniProt Q15118, whole entry, looked up: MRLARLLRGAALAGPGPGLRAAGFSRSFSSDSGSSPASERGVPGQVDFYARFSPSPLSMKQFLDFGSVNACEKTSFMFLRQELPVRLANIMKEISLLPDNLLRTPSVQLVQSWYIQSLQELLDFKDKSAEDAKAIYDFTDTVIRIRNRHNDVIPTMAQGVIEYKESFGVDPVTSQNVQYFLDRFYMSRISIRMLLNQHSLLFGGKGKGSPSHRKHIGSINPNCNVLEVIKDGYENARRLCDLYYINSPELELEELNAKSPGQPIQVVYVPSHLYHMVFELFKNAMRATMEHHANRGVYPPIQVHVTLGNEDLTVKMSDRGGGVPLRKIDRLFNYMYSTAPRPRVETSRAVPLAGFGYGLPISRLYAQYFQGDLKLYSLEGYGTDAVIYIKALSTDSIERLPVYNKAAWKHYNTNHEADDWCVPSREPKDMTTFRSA

Measured: kinase-Nluc reporter destabilization hit call

C[C@H]1CC[C@]2(NC1)O[C@H]1C[C@H]3[C@@H]4CC[C@H]5C[C@@H](O[C@@H]6O[C@H](CO)[C@H](O[C@@H]7O[C@H](CO)[C@@H](O)[C@H](O[C@@H]8OC[C@@H](O)[C@H](O)[C@H]8O)[C@H]7O[C@@H]7O[C@H](CO)[C@@H](O)[C@H](O)[C@H]7O)[C@H](O)[C@H]6O)CC[C@]5(C)[C@H]4CC[C@]3(C)[C@H]1[C@@H]2C [Tomatine] (2.5 µM)
active: NTRK3 = 1
inactive: MAPK1 = 0 | MAPK4 = 0 | MAPKAPK2 = 0 | MKNK1 = 0 | NTRK2 = 0 | PAK4 = 0 | PBK 0 | PDGFRB 0 | PDK1 = 0

CC(=O)c1c(O)c(C)c(O)c(Cc2c(O)c3c(c(C(=O)/C=C/c4ccccc4)c2O)OC(C)(C)C=C3)c1O [Rottlerin] (2 µM)
inactive: MAPK1 = 0 | MAPK4 = 0 | MAPKAPK2 = 0 | MKNK1 = 0 | NTRK2 = 0 | NTRK3 = 0 | PAK4 = 0 | PBK 0 | PDGFRB 0 | PDK1 = 0

C/C(O)=C(\C#N)C(=O)Nc1cc(Br)ccc1Br (10 µM)
inactive: MAPK1 = 0 | MAPK4 = 0 | MAPKAPK2 = 0 | MKNK1 = 0 | NTRK2 = 0 | NTRK3 = 0 | PAK4 = 0 | PBK 0 | PDGFRB 0 | PDK1 = 0

C/C=C(/C)C(=O)O[C@H]1[C@@H]2[C@H](C)C(=O)O[C@@H]2C[C@@H](C)[C@@H]2C=CC(=O)[C@]21C [Brevilin A] (2.5 µM)
inactive: MAPK1 = 0 | MAPK4 = 0 | MAPKAPK2 = 0 | MKNK1 = 0 | NTRK2 = 0 | NTRK3 = 0 | PAK4 = 0 | PBK 0 | PDGFRB 0 | PDK1 = 0

COc1ccc2c(c[n+](C)c3c4cc5c(cc4ccc23)OCO5)c1OC [Chelerythrine (chloride)] (10 µM)
inactive: MAPK1 = 0 | MAPK4 = 0 | MAPKAPK2 = 0 | MKNK1 = 0 | NTRK2 = 0 | NTRK3 = 0 | PAK4 = 0 | PBK 0 | PDGFRB 0 | PDK1 = 0

N#CC(C#N)=Cc1ccc([N+](=O)[O-])c(O)c1 (10 µM)
inactive: MAPK1 = 0 | MAPK4 = 0 | MAPKAPK2 = 0 | MKNK1 = 0 | NTRK2 = 0 | NTRK3 = 0 | PAK4 = 0 | PBK 0 | PDGFRB 0 | PDK1 = 0

O=C1C=CC[C@@H]2[C@H]3CCCN4CCC[C@@H](CN12)[C@@H]34 [Sophocarpine] (10 µM)
inactive: MAPK1 = 0 | MAPK4 = 0 | MAPKAPK2 = 0 | MKNK1 = 0 | NTRK2 = 0 | NTRK3 = 0 | PAK4 = 0 | PBK 0 | PDGFRB 0 | PDK1 = 0

O=C(O)c1nn(Cc2ccc(Cl)cc2Cl)c2ccccc12 [Lonidamine] (10 µM)
inactive: MAPK1 = 0 | MAPK4 = 0 | MAPKAPK2 = 0 | MKNK1 = 0 | NTRK2 = 0 | NTRK3 = 0 | PAK4 = 0 | PBK 0 | PDGFRB 0 | PDK1 = 0

Reprinted at random: 2 compounds from above.
N#CC(C#N)=Cc1ccc([N+](=O)[O-])c(O)c1 (10 µM)
inactive: MAPK1 = 0 | MAPK4 = 0 | MAPKAPK2 = 0 | MKNK1 = 0 | NTRK2 = 0 | NTRK3 = 0 | PAK4 = 0 | PBK 0 | PDGFRB 0 | PDK1 = 0

COc1ccc2c(c[n+](C)c3c4cc5c(cc4ccc23)OCO5)c1OC [Chelerythrine (chloride)] (10 µM)
inactive: MAPK1 = 0 | MAPK4 = 0 | MAPKAPK2 = 0 | MKNK1 = 0 | NTRK2 = 0 | NTRK3 = 0 | PAK4 = 0 | PBK 0 | PDGFRB 0 | PDK1 = 0

Continued:

COc1ccc2c(c1OC)C(OC)N(C)c1c-2ccc2cc3c(cc12)OCO3 (stereo not given) [Angoline] (10 µM)
inactive: MAPK1 = 0 | MAPK4 = 0 | MAPKAPK2 = 0 | MKNK1 = 0 | NTRK2 = 0 | NTRK3 = 0 | PAK4 = 0 | PBK 0 | PDGFRB 0 | PDK1 = 0

C=CC(=O)Nc1ccc2[nH]c(=O)n(C3CCN(Cc4ccc(-c5nc6cc[nH]c(=O)c6cc5-c5ccccc5)cc4)CC3)c2c1 [Borussertib] (10 µM)
inactive: MAPK1 = 0 | MAPK4 = 0 | MAPKAPK2 = 0 | MKNK1 = 0 | NTRK2 = 0 | NTRK3 = 0 | PAK4 = 0 | PBK 0 | PDGFRB 0 | PDK1 = 0

C=C[C@H]1CN2CC[C@]3(C(=O)Nc4ccccc43)[C@@H]2C[C@@H]1/C(=C\OC)C(=O)OC [Corynoxeine] (2 µM)
inactive: MAPK1 = 0 | MAPK4 = 0 | MAPKAPK2 = 0 | MKNK1 = 0 | NTRK2 = 0 | NTRK3 = 0 | PAK4 = 0 | PBK 0 | PDGFRB 0 | PDK1 = 0

O=C1c2ccccc2C(=O)c2c1cccc2-c1cnn(C2CCNCC2)c1 [PDK4-IN-1 (hydrochloride)] (10 µM)
inactive: MAPK1 = 0 | MAPK4 = 0 | MAPKAPK2 = 0 | MKNK1 = 0 | NTRK2 = 0 | NTRK3 = 0 | PAK4 = 0 | PBK 0 | PDGFRB 0 | PDK1 = 0

CCCS(=O)(=O)Nc1ccc(F)c(-n2cc(-c3cncnc3)c3nc(N(C)C4CCN(CC)CC4)ccc32)c1F (2 µM)
inactive: MAPK1 = 0 | MAPK4 = 0 | MAPKAPK2 = 0 | MKNK1 = 0 | NTRK2 = 0 | NTRK3 = 0 | PAK4 = 0 | PBK 0 | PDGFRB 0 | PDK1 = 0

CCCCCCCCCCCCCCCCOC[C@H](COP(=O)([O-])OCC[N+](C)(C)C)OC(C)=O (10 µM)
inactive: MAPK1 = 0 | MAPK4 = 0 | MAPKAPK2 = 0 | MKNK1 = 0 | NTRK2 = 0 | NTRK3 = 0 | PAK4 = 0 | PBK 0 | PDGFRB 0 | PDK1 = 0

C=CC(=O)N[C@H]1C=C(C)c2c(-c3cnc4ccccc4c3)c3c(N)ncnc3n2C1 (10 µM)
inactive: MAPK1 = 0 | MAPK4 = 0 | MAPKAPK2 = 0 | MKNK1 = 0 | NTRK2 = 0 | NTRK3 = 0 | PAK4 = 0 | PBK 0 | PDGFRB 0 | PDK1 = 0

O=c1[nH]c2ccccc2n1C1CCN(CCCC(c2ccc(F)cc2)c2ccc(F)cc2)CC1 [Pimozide] (2.5 µM)
inactive: MAPK1 = 0 | MAPK4 = 0 | MAPKAPK2 = 0 | MKNK1 = 0 | NTRK2 = 0 | NTRK3 = 0 | PAK4 = 0 | PBK 0 | PDGFRB 0 | PDK1 = 0

COC[C@H]1OC(=O)c2coc3c2[C@@]1(C)C1=C(C3=O)[C@@H]2CCC(=O)[C@@]2(C)C[C@H]1OC(C)=O [Wortmannin] (2.5 µM)
inactive: MAPK1 = 0 | MAPK4 = 0 | MAPKAPK2 = 0 | MKNK1 = 0 | NTRK2 = 0 | NTRK3 = 0 | PAK4 = 0 | PBK 0 | PDGFRB 0 | PDK1 = 0

O=[N+]([O-])/C=C/c1ccc2c(c1)OCO2 (2.5 µM)
inactive: MAPK1 = 0 | MAPK4 = 0 | MAPKAPK2 = 0 | MKNK1 = 0 | NTRK2 = 0 | NTRK3 = 0 | PAK4 = 0 | PBK 0 | PDGFRB 0 | PDK1 = 0

CCOC(=O)c1c(/C(C#N)=C\N)c2ccc(Cl)c(Cl)c2n1C (10 µM)
inactive: MAPK1 = 0 | MAPK4 = 0 | MAPKAPK2 = 0 | MKNK1 = 0 | NTRK2 = 0 | NTRK3 = 0 | PAK4 = 0 | PBK 0 | PDGFRB 0 | PDK1 = 0

O=c1cc(O)c2ccccc2o1 [4-Hydroxycoumarin] (10 µM)
inactive: MAPK1 = 0 | MAPK4 = 0 | MAPKAPK2 = 0 | MKNK1 = 0 | NTRK2 = 0 | NTRK3 = 0 | PAK4 = 0 | PBK 0 | PDGFRB 0 | PDK1 = 0

C[S+]([O-])/C=C/CCN=C=S (stereo not given) [Sulforaphene] (10 µM)
inactive: MAPK1 = 0 | MAPK4 = 0 | MAPKAPK2 = 0 | MKNK1 = 0 | NTRK2 = 0 | NTRK3 = 0 | PAK4 = 0 | PBK 0 | PDGFRB 0 | PDK1 = 0

C[C@@H]1CC[C@H]2[C@@H](C)C(=O)O[C@@H]3O[C@@]4(C)CC[C@@H]1[C@]32OO4 [Artemisinin] (10 µM)
inactive: MAPK1 = 0 | MAPK4 = 0 | MAPKAPK2 = 0 | MKNK1 = 0 | NTRK2 = 0 | NTRK3 = 0 | PAK4 = 0 | PBK 0 | PDGFRB 0 | PDK1 = 0

NCCc1cn(S(=O)(=O)c2c(Cl)nc3sccn23)c2ccccc12 (10 µM)
inactive: MAPK1 = 0 | MAPK4 = 0 | MAPKAPK2 = 0 | MKNK1 = 0 | NTRK2 = 0 | NTRK3 = 0 | PAK4 = 0 | PBK 0 | PDGFRB 0 | PDK1 = 0

C[C@H](CCC(=O)O)C[C@H](C)C[C@H](C)C(=O)/C=C(\O)[C@H](C)C[C@H](C)C/C=C/[C@@H](C)[C@@H](O)[C@@H](C)[C@@H](O)C[C@@H]1CC[C@@](C)([C@H]2CC[C@@](C)([C@@H](C)O)O2)O1 [Ionomycin (calcium)] (2.5 µM)
inactive: MAPK1 = 0 | MAPK4 = 0 | MAPKAPK2 = 0 | MKNK1 = 0 | NTRK3 = 0 | PAK4 = 0 | PBK 0 | PDGFRB 0 | PDK1 = 0
active: NTRK2 = 1

CC(=O)Oc1ccc(/C=C/c2cc(OC(C)=O)cc(OC(C)=O)c2)cc1 [Triacetylresveratrol] (10 µM)
inactive: MAPK1 = 0 | MAPK4 = 0 | MAPKAPK2 = 0 | MKNK1 = 0 | NTRK2 = 0 | NTRK3 = 0 | PAK4 = 0 | PBK 0 | PDGFRB 0 | PDK1 = 0

Nc1ncnc2c1ncn2[C@@H]1O[C@@H]2COP(O)(=S)O[C@H]2[C@H]1O (stereo not given in full) [Sp-cAMPS (sodium salt)] (10 µM)
inactive: MAPK1 = 0 | MAPK4 = 0 | MAPKAPK2 = 0 | MKNK1 = 0 | NTRK2 = 0 | NTRK3 = 0 | PAK4 = 0 | PBK 0 | PDGFRB 0 | PDK1 = 0

O=c1[nH]c2ccccc2n1C1CCN(Cc2ccc(-c3[nH]c4cc5ncnc5cc4nc3-c3ccccc3)cc2)CC1 [AKT inhibitor VIII] (2.5 µM)
inactive: MAPK1 = 0 | MAPK4 = 0 | MAPKAPK2 = 0 | MKNK1 = 0 | NTRK2 = 0 | NTRK3 = 0 | PAK4 = 0 | PBK 0 | PDGFRB 0 | PDK1 = 0

CC(=O)O[C@H]1[C@H]2[C@@H](OC(=O)Cc3ccccc3)[C@@H](C)C[C@]2(OC(C)=O)C(=O)/C(C)=C/[C@@H]2[C@H](CC[C@@]13CO3)C2(C)C [Euphorbiasteroid] (10 µM)
inactive: MAPK1 = 0 | MAPK4 = 0 | MAPKAPK2 = 0 | MKNK1 = 0 | NTRK2 = 0 | NTRK3 = 0 | PAK4 = 0 | PBK 0 | PDGFRB 0 | PDK1 = 0

Reference: the supplement of paper PMC12823440, “Inhibitors supercharge kinase turnover through native proteolytic circuits” (Nature, 2025)
